From US20240299386A1, “Novel imidazole derivatives having protein kinase inhibitory activity and uses thereof” (INDUSTRY-UNIVERSITY COOPERATION FOUNDATION HANYANG …, priority 2021, published 2024)
At least one structure is not confirmed: it was looked up by name or label, or the drawing left a doubt.

Amino acid sequences for entries named in this document (tags omitted).
UniProt P53779, whole entry, species assumed: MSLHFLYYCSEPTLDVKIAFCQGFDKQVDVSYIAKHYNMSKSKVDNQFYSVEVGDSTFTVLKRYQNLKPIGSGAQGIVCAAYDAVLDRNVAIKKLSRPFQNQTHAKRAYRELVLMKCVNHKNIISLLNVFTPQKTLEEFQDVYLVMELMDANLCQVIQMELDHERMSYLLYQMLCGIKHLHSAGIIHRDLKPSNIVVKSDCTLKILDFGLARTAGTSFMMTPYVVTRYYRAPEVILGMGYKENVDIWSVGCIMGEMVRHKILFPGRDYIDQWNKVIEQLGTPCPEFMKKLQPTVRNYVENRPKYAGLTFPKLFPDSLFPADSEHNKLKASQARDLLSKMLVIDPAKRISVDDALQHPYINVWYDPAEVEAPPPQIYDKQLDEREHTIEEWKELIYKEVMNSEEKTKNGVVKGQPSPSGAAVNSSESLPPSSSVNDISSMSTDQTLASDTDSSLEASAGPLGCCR

Biological target: JNK3 (Homo sapiens, UniProt P53779)
Test: Measurement of JNK3 enzyme activity
Assay type: biochemical
Settings: Table 2
Text: Experimental Example 1. Measurement of JNK3 Enzyme Activity

SMILES | IC50 [nM]
NC(=O)C1Cc2nc(-c3ccc(Cl)c(Cl)c3)n(-c3ccnc(N[C@H]4CCN(C(=O)C5CC5)C4)n3)c2C1 (stereo partly drawn) [Compound 20b, 1-(2-(((S)-1-(cyclopropanecarbonyl)pyrrolidine-3-yl)amino)pyrimidin-4-yl)-2-(3,4-dichlorophenyl)-1,4,5,6-tetracyclopenta[d]imidazol-5-carboxamide] | < 30
NC(=O)C1Cc2nc(-c3ccc(Cl)c(Cl)c3)n(-c3ccnc(N[C@H]4CCCN(C(=O)C5CC5)C4)n3)c2C1 (stereo partly drawn) [Compound 22b, 1-(2-(((S)-1-(cyclopropanecarbonyl)piperidin-3-yl)amino)pyrimidin-4-yl)-2-(3,4-dichlorophenyl)-1,4,5,6-tetracyclopenta[d]imidazol-5-carboxamide] | < 30
CNC(=O)C1Cc2nc(-c3ccc(Cl)c(Cl)c3)n(-c3ccnc(N[C@H]4CCN(C(=O)C5CC5)C4)n3)c2C1 (stereo partly drawn) [Compound 24b, 1-(2-(((S)-1-(cyclopropanecarbonyl)pyrrolidine-3-yl)amino)pyrimidin-4-yl)-2-(3,4-dichlorophenyl)-N-methyl-1,4,5,6-tetracyclopenta[d]imidazol-5-carboxamide] | < 30
CNC(=O)C1Cc2nc(-c3ccc(Cl)c(Cl)c3)n(-c3ccnc(N[C@@H]4CCN(C(=O)C5CC5)C4)n3)c2C1 (stereo partly drawn) [Compound 25b, 1-(2-(((R)-1-(cyclopropanecarbonyl)pyrrolidine-3-yl)amino)pyrimidin-4-yl)-2-(3,4-dichlorophenyl)-N-methyl-1,4,5,6-tetracyclopenta[d]imidazol-5-carboxamide] | < 30
CNC(=O)C1Cc2nc(-c3ccc(Cl)c(Cl)c3)n(-c3ccnc(N[C@H]4CCCN(C(=O)C5CC5)C4)n3)c2C1 (stereo partly drawn) [Compound 26b, 1-(2-(((S)-1-(cyclopropanecarbonyl)piperidin-3-yl)amino)pyrimidin-4-yl)-2-(3,4-dichlorophenyl)-N-methyl-1,4,5,6-tetracyclopenta[d]imidazol-5-carboxamide] | < 30
CNC(=O)C1Cc2nc(-c3ccc(Cl)c(Cl)c3)n(-c3ccnc(N[C@@H]4CCCN(C(=O)C5CC5)C4)n3)c2C1 (stereo partly drawn) [Compound 27b] | < 30
